# These are yes or no findings as the source states them, for the method shown.
# Biological target: T1, recombinant, depyrogenated truncated Tissue Factor (amino acids 1-219) of Example X (human), P13726
# T1 chain: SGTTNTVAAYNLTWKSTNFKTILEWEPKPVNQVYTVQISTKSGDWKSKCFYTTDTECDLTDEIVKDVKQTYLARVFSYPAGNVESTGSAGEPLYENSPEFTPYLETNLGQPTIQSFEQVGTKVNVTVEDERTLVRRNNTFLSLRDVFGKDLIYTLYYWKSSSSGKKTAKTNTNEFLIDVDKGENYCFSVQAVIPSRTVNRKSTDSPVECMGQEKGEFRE
# Test: SPR (Biacore, CM5 chip); tTF immobilized by amine coupling (700 RU) or captured by anti-human TF antibody (300 RU); tTF injected alone or after preincubation with LPS (10 µg/ml)
# Conditions: remark: other sources report otherwise
binder,measurement,value
"recombinant, depyrogenated truncated Tissue Factor (amino acids 1-219) of Example X (other, human, UniProt P13726 33-251, looked up, also called tTF; endotoxin-free tTF) SGTTNTVAAYNLTWKSTNFKTILEWEPKPVNQVYTVQISTKSGDWKSKCFYTTDTECDLTDEIVKDVKQTYLARVFSYPAGNVESTGSAGEPLYENSPEFTPYLETNLGQPTIQSFEQVGTKVNVTVEDERTLVRRNNTFLSLRDVFGKDLIYTLYYWKSSSSGKKTAKTNTNEFLIDVDKGENYCFSVQAVIPSRTVNRKSTDSPVECMGQEKGEFRE",binding,no binding (tested: 30 µg/ml)
